Test results reported in article PMC10481574.

Target: TNFR2-ICD (intracellular domain of TNFR2) (human)
Assay: co-IP; HEK293T cells harvested ~24 h after transfection, lysed in cell lysis buffer for Western and IP (Beyotime P0013); lysates precleared with protein A/G-PLUS agarose beads; IP with anti-HA tag or anti-FLAG tag antibody, immunoblot

- binding: no binding
B1: RGS5 aa 109-181 (C-RGS5) (domain or fragment, UniProt O15539 109-181)
chain: MAEKAKQIYEEFIQTEAPKEVNIDHFTKDITMKNLVEPSLSSFDMAQKRIHALMEKDSLPRFVRSEFYQELIK

- binding: binds
B2: RGS5 aa 1-108 (N-RGS5) (domain or fragment, UniProt O15539 1-108)
chain: MCKGLAALPHSCLERAKEIKIKLGILLQKPDSVGDLVIPYNEKPEKPAKTQKTSLDEALQWRDSLDKLLQNNYGLASFKSFLKSEFSEENLEFWIACEDYKKIKSPAK

Results are given in words; binding and its absence hold for the method and conditions named. Binding seen in cells or lysates may run through a third protein. A result given as binding can be weak or reduced; the word gives no strength. Each block holds one binder with its values, some of them ahead of it.
